# The supplement of paper PMC8728848
# Some of the results follow.
# B1: PP2A1 (Arabidopsis thaliana) (protein)
# chain: MFRNQDSKYLIPVQKEAPPVTTLPMKASTVKSPHNCEAILRDADPPISLSSVNLSEQLRSGVFLKPKKQIKYWVDERNSNCFMLFAKNLSITWSDDVNYWTWFTEKESPNENVEAVGLKNVCWLDITGKFDTRNLTPGIVYEVVFKVKLEDPAYGWDTPVNLKLVLPNGKEKPQEKKVSLRELPRYKWVDVRVGEFVPEKSAAGEITFSMYEHAAGVWKKGLSLKGVAIRPKQHHHHHH
# How the values were obtained:
# Experiment in all cases: glycan array binding signal (z-score within array); higher = stronger binding
# Conditions in all cases: glycan notation: IUPAC condensed, linker removed
# Glc(a1-4)Glc = target: Glc(a1-4)Glc
# How it was run: (§1)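 Arrays were curated from the Consortium for Functional Glycomics database, 3228 in total, and kept only where the protein sequence was available. Binding is expressed as a within-array Z-score. This score was averaged across arrays of the same protein sequence at different concentrations or buffers and across linkers, and negative values can be read as non-binding.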
# Glc(a1-6)Glc(a1-6)Glc = target: Glc(a1-6)Glc(a1-6)Glc
# How it was run: as §1
# Glc(b1-4)Glc = target: Glc(b1-4)Glc
# How it was run: as §1
# Glc(b1-6)Glc = target: Glc(b1-6)Glc
# How it was run: as §1
# GlcA(b1-3)Gal = target: GlcA(b1-3)Gal
# How it was run: as §1
# GlcA(b1-3)GlcNAc = target: GlcA(b1-3)GlcNAc
# How it was run: as §1
# GlcA(b1-6)Gal = target: GlcA(b1-6)Gal
# How it was run: as §1
# [1] = target: GlcNAc(a1-3)Gal(b1-4)GlcNAc
# How it was run: as §1
# [2] = target: GlcNAc(a1-4)Gal(b1-3)GlcNAc
# How it was run: as §1
# [3] = target: GlcNAc(a1-4)Gal(b1-4)GalNAc
# How it was run: as §1
# [4] = target: GlcNAc(a1-4)Gal(b1-4)GlcNAc
# How it was run: as §1
# [5] = target: GlcNAc(a1-4)Gal(b1-4)GlcNAc(b1-3)Gal(b1-4)Glc
# How it was run: as §1
# [6] = target: GlcNAc(a1-4)Gal(b1-4)GlcNAc(b1-3)Gal(b1-4)GlcNAc
# How it was run: as §1
# [7] = target: GlcNAc(a1-4)Gal(b1-4)GlcNAc(b1-3)Gal(b1-4)GlcNAc(b1-3)Gal(b1-4)GlcNAc
# How it was run: as §1
# [8] = target: GlcNAc(a1-4)Gal(b1-4)GlcNAc(b1-3)Gal(b1-4)[Fuc(a1-3)]GlcNAc(b1-3)Gal(b1-4)[Fuc(a1-3)]GlcNAc
# How it was run: as §1
# [9] = target: GlcNAc(a1-6)Gal(b1-4)GlcNAc
# How it was run: as §1
# [10] = target: GlcNAc(b1-2)Gal(b1-3)GalNAc
# How it was run: as §1
# [11] = target: GlcNAc(b1-2)Man(a1-3)[GlcNAc(b1-2)Man(a1-6)]Man(b1-4)GlcNAc(b1-4)GlcNAc
# How it was run: as §1
# [12] = target: GlcNAc(b1-2)Man(a1-3)[GlcNAc(b1-2)Man(a1-6)]Man(b1-4)GlcNAc(b1-4)[Fuc(a1-6)]GlcNAc
# How it was run: as §1
# GlcNAc(b1-3)Gal = target: GlcNAc(b1-3)Gal
# How it was run: as §1
# [13] = target: GlcNAc(b1-3)Gal(b1-3)GalNAc
# How it was run: as §1
# GlcNAc(b1-3)Gal(b1-4)Glc = target: GlcNAc(b1-3)Gal(b1-4)Glc
# How it was run: as §1
# [14] = target: GlcNAc(b1-3)Gal(b1-4)GlcNAc
# How it was run: as §1
# [15] = target: GlcNAc(b1-3)Gal(b1-4)GlcNAc(b1-3)Gal(b1-4)GlcNAc
# How it was run: as §1
# GlcNAc(b1-3)GalNAc = target: GlcNAc(b1-3)GalNAc
# How it was run: as §1
# GlcNAc(b1-3)Man = target: GlcNAc(b1-3)Man
# How it was run: as §1
# [16] = target: GlcNAc(b1-3)[GlcNAc(b1-4)][GlcNAc(b1-6)]GlcNAc
# How it was run: as §1
# [17] = target: GlcNAc(b1-3)[GlcNAc(b1-6)]Gal(b1-4)GlcNAc
# How it was run: as §1
# [18] = target: GlcNAc(b1-3)[GlcNAc(b1-6)]GalNAc
# How it was run: as §1
# [19] = target: GlcNAc(b1-4)Gal(b1-4)GlcNAc
# How it was run: as §1
# GlcNAc(b1-4)GlcNAc = target: GlcNAc(b1-4)GlcNAc
# How it was run: as §1
# [20] = target: GlcNAc(b1-4)GlcNAc(b1-4)GlcNAc
# How it was run: as §1
# [21] = target: GlcNAc(b1-4)GlcNAc(b1-4)GlcNAc(b1-4)GlcNAc(b1-4)GlcNAc
# How it was run: as §1
# [22] = target: GlcNAc(b1-4)GlcNAc(b1-4)GlcNAc(b1-4)GlcNAc(b1-4)GlcNAc(b1-4)GlcNAc
# How it was run: as §1
# [23] = target: GlcNAc(b1-4)[GlcNAc(b1-6)]GalNAc
# How it was run: as §1
# [24] = target: GlcNAc(b1-6)Gal(b1-4)GlcNAc
# How it was run: as §1
# GlcNAc(b1-6)GalNAc = target: GlcNAc(b1-6)GalNAc
# How it was run: as §1
# GlcNAc3Prop(b1-4)GlcNAc = target: GlcNAc3Prop(b1-4)GlcNAc
# How it was run: as §1
# [25] = target: GlcNAc6S(b1-3)Gal(b1-4)GlcNAc
# How it was run: as §1
# Kdn(a2-3)Gal(b1-3)GalNAc = target: Kdn(a2-3)Gal(b1-3)GalNAc
# How it was run: as §1
# Kdn(a2-3)Gal(b1-3)GlcNAc = target: Kdn(a2-3)Gal(b1-3)GlcNAc
# How it was run: as §1
# Kdn(a2-3)Gal(b1-4)Glc = target: Kdn(a2-3)Gal(b1-4)Glc
# How it was run: as §1
# Kdn(a2-3)Gal(b1-4)GlcNAc = target: Kdn(a2-3)Gal(b1-4)GlcNAc
# How it was run: as §1
# [26] = target: Kdn(a2-3)Gal(b1-4)[Fuc(a1-3)]GlcNAc
# How it was run: as §1
# Kdn(a2-6)Gal(b1-4)GlcNAc = target: Kdn(a2-6)Gal(b1-4)GlcNAc
# How it was run: as §1
binder,measurement,setting,value
B1,glycan array binding signal (z-score),Glc(a1-4)Glc,-0.166
same,glycan array binding signal (z-score),Glc(a1-6)Glc(a1-6)Glc,-0.437
same,glycan array binding signal (z-score),Glc(b1-4)Glc,-0.133
same,glycan array binding signal (z-score),Glc(b1-6)Glc,-0.56
same,glycan array binding signal (z-score),GlcA(b1-3)Gal,-0.254
same,glycan array binding signal (z-score),GlcA(b1-3)GlcNAc,-0.177
same,glycan array binding signal (z-score),GlcA(b1-6)Gal,0.339
same,glycan array binding signal (z-score),[1],-0.581
same,glycan array binding signal (z-score),[2],0.337
same,glycan array binding signal (z-score),[3],1.26
same,glycan array binding signal (z-score),[4],-0.026
same,glycan array binding signal (z-score),[5],-0.212
same,glycan array binding signal (z-score),[6],0.172
same,glycan array binding signal (z-score),[7],-0.439
same,glycan array binding signal (z-score),[8],2.05
same,glycan array binding signal (z-score),[9],-0.489
same,glycan array binding signal (z-score),[10],-0.576
same,glycan array binding signal (z-score),[11],0.779
same,glycan array binding signal (z-score),[12],1.08
same,glycan array binding signal (z-score),GlcNAc(b1-3)Gal,-0.504
same,glycan array binding signal (z-score),[13],-0.583
same,glycan array binding signal (z-score),GlcNAc(b1-3)Gal(b1-4)Glc,-0.424
same,glycan array binding signal (z-score),[14],-0.321
same,glycan array binding signal (z-score),[15],-0.708
same,glycan array binding signal (z-score),GlcNAc(b1-3)GalNAc,-0.555
same,glycan array binding signal (z-score),GlcNAc(b1-3)Man,-0.596
same,glycan array binding signal (z-score),[16],-0.303
same,glycan array binding signal (z-score),[17],-0.643
same,glycan array binding signal (z-score),[18],-0.419
same,glycan array binding signal (z-score),[19],-0.64
same,glycan array binding signal (z-score),GlcNAc(b1-4)GlcNAc,-0.6
same,glycan array binding signal (z-score),[20],2.52
same,glycan array binding signal (z-score),[21],1.81
same,glycan array binding signal (z-score),[22],0.665
same,glycan array binding signal (z-score),[23],-0.751
same,glycan array binding signal (z-score),[24],-0.455
same,glycan array binding signal (z-score),GlcNAc(b1-6)GalNAc,-0.655
same,glycan array binding signal (z-score),GlcNAc3Prop(b1-4)GlcNAc,-0.608
same,glycan array binding signal (z-score),[25],-0.237
same,glycan array binding signal (z-score),Kdn(a2-3)Gal(b1-3)GalNAc,-0.162
same,glycan array binding signal (z-score),Kdn(a2-3)Gal(b1-3)GlcNAc,-0.243
same,glycan array binding signal (z-score),Kdn(a2-3)Gal(b1-4)Glc,-0.46
same,glycan array binding signal (z-score),Kdn(a2-3)Gal(b1-4)GlcNAc,0.076
same,glycan array binding signal (z-score),[26],-0.169
same,glycan array binding signal (z-score),Kdn(a2-6)Gal(b1-4)GlcNAc,-0.455

# A second format for part of the listing above.
binder | measurement | setting | value
B1 | glycan array binding signal (z-score) | Glc(b1-6)Glc | -0.56
same | glycan array binding signal (z-score) | GlcA(b1-6)Gal | 0.339
